# Primary screen of a compound library

Protein sequences, listed by entry. Tags and fused reporters are not part of them. Residues count along the entry.
UniProt I6X8D2, whole entry: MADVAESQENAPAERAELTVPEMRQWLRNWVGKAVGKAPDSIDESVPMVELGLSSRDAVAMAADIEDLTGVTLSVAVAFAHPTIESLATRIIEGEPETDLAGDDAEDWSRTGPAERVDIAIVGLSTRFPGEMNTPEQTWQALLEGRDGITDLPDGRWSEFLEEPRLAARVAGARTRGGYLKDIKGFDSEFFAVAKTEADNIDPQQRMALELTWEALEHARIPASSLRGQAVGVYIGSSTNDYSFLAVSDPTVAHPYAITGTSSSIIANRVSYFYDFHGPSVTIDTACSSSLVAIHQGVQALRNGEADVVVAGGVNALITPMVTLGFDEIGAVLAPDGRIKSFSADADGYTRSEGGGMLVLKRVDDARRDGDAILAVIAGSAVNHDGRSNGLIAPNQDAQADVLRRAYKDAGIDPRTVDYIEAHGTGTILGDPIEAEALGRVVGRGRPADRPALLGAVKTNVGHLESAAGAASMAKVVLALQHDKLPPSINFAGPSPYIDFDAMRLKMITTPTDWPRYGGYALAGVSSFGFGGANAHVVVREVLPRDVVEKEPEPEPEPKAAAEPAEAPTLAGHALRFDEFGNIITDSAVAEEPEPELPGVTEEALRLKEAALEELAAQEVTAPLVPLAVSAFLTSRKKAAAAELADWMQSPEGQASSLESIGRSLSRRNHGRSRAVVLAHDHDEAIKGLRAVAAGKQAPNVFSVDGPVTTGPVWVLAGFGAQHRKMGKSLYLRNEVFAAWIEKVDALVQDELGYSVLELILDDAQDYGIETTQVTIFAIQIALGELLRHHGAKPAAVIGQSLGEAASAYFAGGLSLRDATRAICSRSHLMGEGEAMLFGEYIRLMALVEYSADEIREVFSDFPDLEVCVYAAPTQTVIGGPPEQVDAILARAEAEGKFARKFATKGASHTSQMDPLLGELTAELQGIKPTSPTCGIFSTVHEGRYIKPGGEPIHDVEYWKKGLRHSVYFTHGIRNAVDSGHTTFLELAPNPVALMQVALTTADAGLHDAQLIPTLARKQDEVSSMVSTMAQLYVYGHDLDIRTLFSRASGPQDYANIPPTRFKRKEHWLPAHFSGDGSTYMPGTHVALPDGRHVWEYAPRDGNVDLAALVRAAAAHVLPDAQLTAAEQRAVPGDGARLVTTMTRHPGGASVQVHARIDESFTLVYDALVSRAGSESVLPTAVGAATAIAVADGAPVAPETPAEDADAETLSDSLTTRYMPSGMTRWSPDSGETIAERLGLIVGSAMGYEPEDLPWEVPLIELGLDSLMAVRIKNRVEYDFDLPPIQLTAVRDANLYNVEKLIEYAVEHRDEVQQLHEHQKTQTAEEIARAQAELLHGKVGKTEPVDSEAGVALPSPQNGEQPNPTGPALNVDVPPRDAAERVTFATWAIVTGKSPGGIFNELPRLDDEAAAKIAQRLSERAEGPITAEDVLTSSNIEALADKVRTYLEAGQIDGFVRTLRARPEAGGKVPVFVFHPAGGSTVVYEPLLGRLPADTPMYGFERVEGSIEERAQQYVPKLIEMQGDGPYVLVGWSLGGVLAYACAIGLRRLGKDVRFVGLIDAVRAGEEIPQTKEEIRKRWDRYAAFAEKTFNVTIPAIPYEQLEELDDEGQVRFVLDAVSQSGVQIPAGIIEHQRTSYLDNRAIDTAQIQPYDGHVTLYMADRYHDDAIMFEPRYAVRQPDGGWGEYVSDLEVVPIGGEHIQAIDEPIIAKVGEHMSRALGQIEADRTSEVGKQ
UniProt Q4DA54, 1-478: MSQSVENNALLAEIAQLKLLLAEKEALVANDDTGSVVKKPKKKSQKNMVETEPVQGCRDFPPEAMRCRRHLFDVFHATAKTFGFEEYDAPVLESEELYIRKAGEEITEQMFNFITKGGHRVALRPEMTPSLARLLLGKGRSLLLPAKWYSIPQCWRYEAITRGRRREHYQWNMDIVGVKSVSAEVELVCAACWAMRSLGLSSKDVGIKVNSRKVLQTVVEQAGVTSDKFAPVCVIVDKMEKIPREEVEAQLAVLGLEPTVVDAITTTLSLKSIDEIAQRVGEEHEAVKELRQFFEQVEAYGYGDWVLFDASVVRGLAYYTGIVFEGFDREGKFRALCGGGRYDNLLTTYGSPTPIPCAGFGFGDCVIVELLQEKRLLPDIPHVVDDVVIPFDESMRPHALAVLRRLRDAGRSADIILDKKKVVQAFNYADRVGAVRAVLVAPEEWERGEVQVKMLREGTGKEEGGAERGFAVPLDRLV

Results are given as percent effect.
How 0% and 100% were set is not recorded. Most values in the screen are low, and negative values occur.
Compounds were drawn at random from those tested, without regard to their results.
A dash means the value is not listed here; it may have been measured.

Pks13 thioesterase: 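Enzyme assay of the thioesterase domain of polyketide synthase 13; the read-out is not stated. Target: Polyketide synthase Pks13, Mycobacterium tuberculosis (UniProt I6X8D2). Concentration: 30 µM. The record gives no direction; the compounds picked for IC50 retests had high values, so higher reads as stronger inhibition. Of about 67,000 compounds tested this way, about 300 (0.46%) reached 50% or more in at least one test.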
TcHisRS: 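Enzyme assay of histidyl-tRNA synthetase; the read-out is not stated. Target: Histidine-tRNA ligase, Trypanosoma cruzi CL Brener (UniProt Q4DA54). Compounds at 30 µM. The record gives no direction; compounds that gave an IC50 in retests scored well above the rest, so higher reads as stronger inhibition. Size under these conditions: about 69,000 compounds, about 31 of them at 50% or above in at least one test.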

structure | Pks13 thioesterase | TcHisRS
O=C(c1cccs1)N1CC(C(=O)N2CCCC2)C2(CCOCC2)C1 (centres unmarked) | 6.883 | 6.468
CC(Oc1ccc(F)cc1)C(=O)N(CC(N)=O)C1CCCC1 (centres unmarked) | -7.243 | 5.102
COc1ccc(-n2cc(CCO)cn2)cc1C | -18.38 | 7.328
CN(Cc1ccccc1OC(F)(F)F)C(=O)C1CC1 | -22 | 4.255
CCc1cc(NCCNc2ccncc2C)n2nc(C)c(C)c2n1 | -21.89 | -0.8333
Cc1nn(C)cc1NC(=O)CC1CCN(CCc2ccccc2)CC1 | 0.0611 | 4.887
Cc1ccnn1CCNC(=O)c1cnc(N(C)C)nc1 | -7.12 | 11.36
Cc1ccnc(N2CCCC(c3noc(C(C)C)n3)C2)n1 (centres unmarked) | -7.591 | 5.102
O=C1N(C2CCCCC2)CCCC12CCN(S(=O)(=O)c1cccnc1)C2 (centres unmarked) | -26.63 | 6.077
CC(C)(C)OC(=O)N1CC(CC(=O)NCc2ccnc(C3CC3)c2)C1 | - | 2.941
Cc1ccccc1N1CCCN(C(=O)c2cn(C)c3ccccc23)CC1 | -2.221 | 7.143
CCc1cc(CN(C)C(=O)c2cnon2)on1 | -36 | 8.511
CN1C[C@@H](N)C[C@H]1C(=O)N1CCC(Cc2ccc(F)cc2)CC1 | -2.629 | 7
Cc1nc(CN2CCCC(CCc3ccccc3C(F)(F)F)C2)no1 (centres unmarked) | 13.87 | 0
CC(C)N(C)CC(=O)NCC(O)c1cc2ccccc2s1 (centres unmarked) | -18.65 | 7.937
CCCSCC(=O)N1CCCC(c2nccn2Cc2ccncc2)C1 (centres unmarked) | -15.03 | -2.041
CC(C)Oc1cccc(F)c1C(C(=O)O)N(C)Cc1ccon1 (centres unmarked) | -8.157 | 4.217
CCc1cnc(C)nc1NCCNc1nc(C)cc(=O)[nH]1 | -53.36 | 4.255
Cc1nnn2c1COCC(CNC(=O)c1ccc[nH]1)C2 (centres unmarked) | -9.74 | 5.785
COc1cc(-c2cnnc(NCC3CC3)n2)cc(OC)c1OC | -34.68 | -1.117
COCC1CN(Cc2ccoc2)Cc2nnn(C)c21 (centres unmarked) | -11.59 | 9.091
OC1(Cn2ccc3ncccc32)CCN(Cc2cc(F)cc(F)c2)CC1 | 14.59 | 5.319
COc1ccccc1CN(C)c1nc2c(cnn2C)c(=O)[nH]1 | -15.65 | -1.724
O=C(NCCC(O)c1ccco1)c1ccco1 (centres unmarked) | - | 2.222
CN(CC1(CO)CCC1)c1nc2c(c(=O)[nH]1)Cc1ccccc1OC2 | -0.4878 | 10.71
Cc1cc(=O)c(C(=O)N2CCCCC2c2ccc(F)cc2)c[nH]1 (centres unmarked) | -23.11 | 4.469
O=C(c1ccoc1)N1CCO[C@]2(CCC[C@@H]2COCc2cccnc2)C1 | -6.924 | 13.73
O=C(c1ncccn1)N1C[C@H]2CCC[C@@]2(COCc2ccncc2)C1 | -14.59 | 1.087
OC1(c2cn(CC3CCN(C4CCSC4)CC3)nn2)CCCC1 (centres unmarked) | -2.405 | 1.01
Cc1nc[nH]c1CN1CCOC(CCNC(=O)c2ccsc2)C1 (centres unmarked) | -40.23 | 0
Cc1n[nH]c(C2CN(Cc3csc(C4CC4)n3)CCO2)n1 (centres unmarked) | -17.98 | 4.762
COCC(=O)N1CCC2(CCCN(Cc3cnn(C)c3)C2)C1 (centres unmarked) | -6.789 | 3.941
Cc1cc(C)c(CNC(=O)NC2COc3ccccc3C2)c(=O)[nH]1 (centres unmarked) | 7.511 | 11.67
Cc1nc(O)c2c(n1)CCN(Cc1cc(C)sc1C)CC2 | 8.599 | 0.7692
Cc1cnn(CCNc2cnc3ccccc3n2)c1 | -4.201 | 4.386
Cc1nc(C)n(C2CCCN(C(=O)c3ccc(F)c(F)c3)C2)n1 (centres unmarked) | -8.498 | 4.956
CC(Nc1cccc(COCc2ccco2)c1)C(=O)NC(N)=O (centres unmarked) | -3.067 | 3
O=S1(=O)c2ccccc2C2(CCN(Cc3cccnc3)C2)N1CC1CC1 (centres unmarked) | 6.956 | 4.902
Cc1ccc(OCC(C)NS(=O)(=O)Cc2ccon2)cc1 (centres unmarked) | -1.706 | 5.941
Cc1cc(CC(=O)NC2CCCN(c3ccccc3Cl)C2=O)n[nH]1 (centres unmarked) | -1.223 | 4.478
Cc1ccc2c(c1)OCCCC2NCc1nnc2n1CCCCC2 (centres unmarked) | -31.82 | -1.695
CCNc1ncc(C(=O)NCc2csc(-c3cnccn3)n2)cn1 | 17.42 | -1.235
CCn1cnnc1CNC(=O)N1CCN(c2cccc(C)c2)CC1 | -6.752 | 8.621
CCCN1CCCCC1C(=O)Nc1ccc(-c2nnc[nH]2)cc1 (centres unmarked) | -4.47 | 5
CC(CN1CCOCC1)OC(=O)c1ccccc1Cl (centres unmarked) | -4.27 | 4.969
CN(Cc1ccccc1F)C(=O)c1ccoc1 | -19.04 | 7.263
Cn1nc(N2CCCC(C(=O)Nc3nc4ccccc4[nH]3)C2)ccc1=O (centres unmarked) | -4.277 | 7.273
CNC(=O)c1cn[nH]c1C1(C)CCCN(Cc2ccccc2OC)C1 (centres unmarked) | -15.82 | 7.463
O=C(NCCN1CCc2ccccc21)c1cc(-c2ccc(O)cc2)n[nH]1 | -8.48 | 1.734
Cc1cc(C(=O)NCCC(C)C)ccc1NS(C)(=O)=O | -10.11 | -2.381
CC(C)c1nnc2n1CC(CNCc1cccnc1)CC2 (centres unmarked) | -13.68 | -0.8772
CCn1ccc(-c2cc(C(=O)O)n3nc(C)c(Cl)c3n2)n1 | 3.947 | 3.093
CCn1cc(C(=O)N2CCCN(c3cccnn3)CC2)c2ccccc21 | -6.808 | 1.02
O=C(c1ccc(-n2ccnn2)cc1)N(CC1CC1)c1cccnc1 | 5.894 | 6.061
COCC(=O)N1CCOC2(CCCN(c3cnccn3)C2)C1 (centres unmarked) | -27.26 | 1.149
COCCN(Cc1ccoc1)C(=O)c1cccnc1SC | -12.31 | 3.261
Cc1ncnc2c1CCN(C(=O)c1ccoc1)CC2 | - | 1.493
CCOC(=O)c1nnc2ccccc2c1N1CCN(C(C)C)CC1 | -16.15 | 6.548
CCN(CC)CCSc1ncnc2[nH]ncc12 | -20.07 | 7.447
O=C(N[C@@H]1CN[C@H]2CCCO[C@H]21)c1cnccn1 | -0.7883 | -2.632
CC(C)N1CCC(NC(=O)NCc2cccnc2)C1 (centres unmarked) | -10.43 | 2.02
FC(F)(F)Oc1cccc(CNCc2ccc(-n3cncn3)nc2)c1 | -18.24 | 8.036
CS(=O)(=O)NCc1cc2n(n1)CCCN(Cc1cc3ccccc3o1)C2 | -4.454 | 4.082
O=C(NCc1cc[nH]n1)NCC(c1ccco1)N1CCCC1 (centres unmarked) | -8.61 | 5.085
CC(C)CC(=O)N(C)CC(=O)Nc1ccc(Br)cn1 | -16.94 | 2.825
CN1C[C@@H](F)[C@@H](OCc2nc3ccccc3[nH]2)C1 | -34.35 | 1.493
CC(C)Cc1cc(NC(=O)c2ccccc2)n(C)n1 | 6.783 | 6.322
CCN1CCCC1CN(Cc1ccon1)CC1CCN(CCOC)CC1 (centres unmarked) | -7.46 | 2.381
CC(=O)N1CCN(c2ccnc(C)n2)CC(COc2ccccc2)C1 (centres unmarked) | -3.568 | 7.778
CC(C)(NS(C)(=O)=O)c1nc(-c2ccncc2)no1 | -12.58 | 6.931
c1cc(CN(CCCn2ccnc2)Cc2ccoc2)ccn1 | -2.223 | 0
Cc1cccc(CN2Cc3[nH]nc(COCC4CC4)c3C2)n1 | -1.822 | 3.226
Cc1ccc(C(=O)NS(=O)(=O)c2ccccc2Cl)c(=O)[nH]1 | -7.941 | -0.5848
CC(C)c1nnc(CN2CCN(C(C)c3nc(C4CC4)no3)CC2)o1 (centres unmarked) | -1.22 | 3.134
CCc1n[nH]c(C2CN(C(=O)Cc3ccc(C)nc3)CCO2)n1 (centres unmarked) | -11.92 | 1.97
CCN1CCc2c(cccc2NC(=O)N(C)C2CCSC2)C1 (centres unmarked) | -6.887 | 2.924
OCc1cc2ccccc2nc1NCC1CCN(CC(F)(F)F)C1 (centres unmarked) | -10.27 | 15.61
CCCc1n[nH]c(C2CN(C(=O)CCn3ccccc3=O)CCO2)n1 (centres unmarked) | -11.33 | 3.152
CN1CCN(S(=O)(=O)c2ccc3c(c2)CN(C(=O)C(C)(C)C)CC3)CC1 | -34.2 | 2.564
N#Cc1nccnc1NC1CCN(c2c(F)cccc2F)C1 (centres unmarked) | -19.84 | 7.843
c1ccc(-c2cc(CN3CCc4cncnc4C3)on2)cc1 | -8.317 | 24.86
Cc1ccc(C2(CN(C)Cc3snnc3C)CCNCC2)nc1 | 0.5557 | 4
O=C1CN(S(=O)(=O)c2ccc(F)cc2)CC(O)CN1CC1CC1 (centres unmarked) | 4.967 | 3.371
Cc1[nH]nc(CCC(=O)N2CCOC(CCc3ccccc3)C2)c1C (centres unmarked) | -13.2 | 0.5587

Repeated from the top, 4 entries:

* O=C(c1cccs1)N1CC(C(=O)N2CCCC2)C2(CCOCC2)C1 (centres unmarked) : Pks13 thioesterase: 6.883%; TcHisRS: 6.468%
* CC(Oc1ccc(F)cc1)C(=O)N(CC(N)=O)C1CCCC1 (centres unmarked) : Pks13 thioesterase: -7.243%; TcHisRS: 5.102%
* COc1ccc(-n2cc(CCO)cn2)cc1C : Pks13 thioesterase: -18.38%; TcHisRS: 7.328%
* CN(Cc1ccccc1OC(F)(F)F)C(=O)C1CC1 : Pks13 thioesterase: -22%; TcHisRS: 4.255%

From ChEMBL document CHEMBL3988442, “University of Dundee, Small-Polar-MMV Screening Library” (2021).